The chains behind the UniProt entries cited, without tags or fusion partners. Where a name states a change or a piece, a line headed by the entry shows the natural chain unless it says otherwise.
UniProt Q9UQB8: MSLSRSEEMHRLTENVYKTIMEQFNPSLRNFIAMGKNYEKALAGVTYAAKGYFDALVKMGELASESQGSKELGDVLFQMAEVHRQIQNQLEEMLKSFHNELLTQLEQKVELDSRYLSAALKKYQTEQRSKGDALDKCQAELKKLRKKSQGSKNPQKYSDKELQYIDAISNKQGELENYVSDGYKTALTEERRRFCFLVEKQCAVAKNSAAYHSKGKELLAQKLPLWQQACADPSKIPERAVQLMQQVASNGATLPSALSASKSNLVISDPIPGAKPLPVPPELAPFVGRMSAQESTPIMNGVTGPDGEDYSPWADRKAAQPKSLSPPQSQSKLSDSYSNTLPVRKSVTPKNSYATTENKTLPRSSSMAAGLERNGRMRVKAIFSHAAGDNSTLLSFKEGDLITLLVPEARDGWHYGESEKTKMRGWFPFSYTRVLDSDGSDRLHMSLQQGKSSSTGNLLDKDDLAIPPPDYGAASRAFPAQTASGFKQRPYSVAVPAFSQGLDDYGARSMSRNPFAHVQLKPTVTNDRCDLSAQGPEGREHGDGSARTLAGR
UniProt P46379: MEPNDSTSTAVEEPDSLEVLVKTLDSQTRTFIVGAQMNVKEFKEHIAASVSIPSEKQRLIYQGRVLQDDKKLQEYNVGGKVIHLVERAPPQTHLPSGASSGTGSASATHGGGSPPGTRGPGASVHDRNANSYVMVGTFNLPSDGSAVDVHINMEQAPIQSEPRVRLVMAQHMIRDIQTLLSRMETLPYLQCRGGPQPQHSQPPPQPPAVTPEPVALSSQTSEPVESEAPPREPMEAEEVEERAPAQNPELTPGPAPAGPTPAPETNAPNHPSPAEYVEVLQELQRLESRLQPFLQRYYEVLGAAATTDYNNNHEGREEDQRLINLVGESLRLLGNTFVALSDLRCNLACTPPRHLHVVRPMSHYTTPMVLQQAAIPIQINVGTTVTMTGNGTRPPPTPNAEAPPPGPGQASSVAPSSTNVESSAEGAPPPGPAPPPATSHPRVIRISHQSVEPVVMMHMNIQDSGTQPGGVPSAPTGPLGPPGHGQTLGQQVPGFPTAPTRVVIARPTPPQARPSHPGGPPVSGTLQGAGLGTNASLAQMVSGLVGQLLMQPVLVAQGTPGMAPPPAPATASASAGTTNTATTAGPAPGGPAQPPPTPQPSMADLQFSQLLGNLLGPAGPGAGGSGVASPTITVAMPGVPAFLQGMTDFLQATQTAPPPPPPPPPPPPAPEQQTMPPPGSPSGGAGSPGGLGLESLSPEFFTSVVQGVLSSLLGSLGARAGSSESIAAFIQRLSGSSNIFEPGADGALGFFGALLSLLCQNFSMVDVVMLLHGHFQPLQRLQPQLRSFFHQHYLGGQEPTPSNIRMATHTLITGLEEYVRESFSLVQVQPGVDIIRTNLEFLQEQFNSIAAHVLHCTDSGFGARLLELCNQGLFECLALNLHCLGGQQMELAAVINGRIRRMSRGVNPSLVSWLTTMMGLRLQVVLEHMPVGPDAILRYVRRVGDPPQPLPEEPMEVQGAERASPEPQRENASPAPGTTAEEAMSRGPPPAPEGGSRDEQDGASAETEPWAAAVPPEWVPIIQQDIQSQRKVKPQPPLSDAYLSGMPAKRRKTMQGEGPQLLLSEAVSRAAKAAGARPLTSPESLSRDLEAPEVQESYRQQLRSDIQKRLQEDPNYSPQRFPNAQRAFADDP
UniProt Q8TDH9: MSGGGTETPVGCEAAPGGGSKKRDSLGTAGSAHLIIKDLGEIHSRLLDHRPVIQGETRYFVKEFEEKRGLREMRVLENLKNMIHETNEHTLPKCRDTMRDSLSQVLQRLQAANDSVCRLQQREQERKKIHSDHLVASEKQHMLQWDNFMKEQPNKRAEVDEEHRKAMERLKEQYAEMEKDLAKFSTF
UniProt Q7KYR7: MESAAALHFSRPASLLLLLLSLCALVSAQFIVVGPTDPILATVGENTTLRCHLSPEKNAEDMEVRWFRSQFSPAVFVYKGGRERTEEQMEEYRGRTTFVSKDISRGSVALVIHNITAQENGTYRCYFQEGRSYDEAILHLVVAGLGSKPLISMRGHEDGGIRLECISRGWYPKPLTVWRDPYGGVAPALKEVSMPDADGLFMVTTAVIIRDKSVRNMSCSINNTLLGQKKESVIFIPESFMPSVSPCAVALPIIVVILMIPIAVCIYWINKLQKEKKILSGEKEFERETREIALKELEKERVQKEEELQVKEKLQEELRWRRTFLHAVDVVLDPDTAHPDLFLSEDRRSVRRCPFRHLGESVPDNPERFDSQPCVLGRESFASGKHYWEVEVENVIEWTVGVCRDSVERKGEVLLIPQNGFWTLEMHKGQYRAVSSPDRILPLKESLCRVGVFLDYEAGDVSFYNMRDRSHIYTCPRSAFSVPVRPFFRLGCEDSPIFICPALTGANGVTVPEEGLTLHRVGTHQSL
UniProt Q9UL15: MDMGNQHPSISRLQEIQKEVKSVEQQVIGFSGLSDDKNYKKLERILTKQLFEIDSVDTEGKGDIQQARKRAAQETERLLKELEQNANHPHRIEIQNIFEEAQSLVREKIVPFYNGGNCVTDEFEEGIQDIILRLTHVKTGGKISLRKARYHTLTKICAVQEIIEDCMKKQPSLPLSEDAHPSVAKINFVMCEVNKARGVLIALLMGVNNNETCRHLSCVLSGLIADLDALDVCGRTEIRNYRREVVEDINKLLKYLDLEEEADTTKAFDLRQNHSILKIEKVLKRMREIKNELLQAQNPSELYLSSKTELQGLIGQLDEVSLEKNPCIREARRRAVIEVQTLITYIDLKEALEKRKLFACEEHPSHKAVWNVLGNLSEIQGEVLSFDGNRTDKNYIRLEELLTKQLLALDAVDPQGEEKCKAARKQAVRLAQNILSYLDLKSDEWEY
UniProt Q92843: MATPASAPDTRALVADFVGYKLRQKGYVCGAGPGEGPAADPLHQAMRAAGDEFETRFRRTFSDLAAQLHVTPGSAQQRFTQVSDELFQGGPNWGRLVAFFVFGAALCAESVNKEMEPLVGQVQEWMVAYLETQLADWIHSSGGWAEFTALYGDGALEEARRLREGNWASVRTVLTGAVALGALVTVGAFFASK
UniProt Q8TDN6: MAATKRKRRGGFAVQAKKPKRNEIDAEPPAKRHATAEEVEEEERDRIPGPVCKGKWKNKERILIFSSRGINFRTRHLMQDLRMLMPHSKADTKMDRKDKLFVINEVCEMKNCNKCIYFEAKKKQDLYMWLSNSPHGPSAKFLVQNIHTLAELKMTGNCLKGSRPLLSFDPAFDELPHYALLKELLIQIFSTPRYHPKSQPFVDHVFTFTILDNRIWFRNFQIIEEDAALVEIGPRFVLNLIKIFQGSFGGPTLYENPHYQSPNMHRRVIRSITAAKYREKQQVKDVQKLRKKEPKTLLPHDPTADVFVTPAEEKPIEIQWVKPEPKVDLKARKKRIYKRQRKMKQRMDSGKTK
UniProt Q96KE9: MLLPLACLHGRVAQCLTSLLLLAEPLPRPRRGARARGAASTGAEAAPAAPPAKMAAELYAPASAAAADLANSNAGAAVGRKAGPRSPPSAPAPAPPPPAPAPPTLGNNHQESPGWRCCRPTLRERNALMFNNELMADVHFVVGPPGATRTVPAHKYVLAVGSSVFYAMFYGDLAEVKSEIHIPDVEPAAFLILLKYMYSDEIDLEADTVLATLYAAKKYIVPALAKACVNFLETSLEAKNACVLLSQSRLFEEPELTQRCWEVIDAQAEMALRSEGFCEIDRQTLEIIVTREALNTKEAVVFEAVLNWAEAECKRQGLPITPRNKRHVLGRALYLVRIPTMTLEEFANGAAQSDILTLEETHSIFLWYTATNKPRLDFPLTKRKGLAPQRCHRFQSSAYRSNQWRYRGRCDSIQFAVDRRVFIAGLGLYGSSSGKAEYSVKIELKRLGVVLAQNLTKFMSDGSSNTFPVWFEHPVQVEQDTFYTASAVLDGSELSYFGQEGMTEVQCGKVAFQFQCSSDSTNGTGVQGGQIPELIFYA
UniProt Q6W2J9: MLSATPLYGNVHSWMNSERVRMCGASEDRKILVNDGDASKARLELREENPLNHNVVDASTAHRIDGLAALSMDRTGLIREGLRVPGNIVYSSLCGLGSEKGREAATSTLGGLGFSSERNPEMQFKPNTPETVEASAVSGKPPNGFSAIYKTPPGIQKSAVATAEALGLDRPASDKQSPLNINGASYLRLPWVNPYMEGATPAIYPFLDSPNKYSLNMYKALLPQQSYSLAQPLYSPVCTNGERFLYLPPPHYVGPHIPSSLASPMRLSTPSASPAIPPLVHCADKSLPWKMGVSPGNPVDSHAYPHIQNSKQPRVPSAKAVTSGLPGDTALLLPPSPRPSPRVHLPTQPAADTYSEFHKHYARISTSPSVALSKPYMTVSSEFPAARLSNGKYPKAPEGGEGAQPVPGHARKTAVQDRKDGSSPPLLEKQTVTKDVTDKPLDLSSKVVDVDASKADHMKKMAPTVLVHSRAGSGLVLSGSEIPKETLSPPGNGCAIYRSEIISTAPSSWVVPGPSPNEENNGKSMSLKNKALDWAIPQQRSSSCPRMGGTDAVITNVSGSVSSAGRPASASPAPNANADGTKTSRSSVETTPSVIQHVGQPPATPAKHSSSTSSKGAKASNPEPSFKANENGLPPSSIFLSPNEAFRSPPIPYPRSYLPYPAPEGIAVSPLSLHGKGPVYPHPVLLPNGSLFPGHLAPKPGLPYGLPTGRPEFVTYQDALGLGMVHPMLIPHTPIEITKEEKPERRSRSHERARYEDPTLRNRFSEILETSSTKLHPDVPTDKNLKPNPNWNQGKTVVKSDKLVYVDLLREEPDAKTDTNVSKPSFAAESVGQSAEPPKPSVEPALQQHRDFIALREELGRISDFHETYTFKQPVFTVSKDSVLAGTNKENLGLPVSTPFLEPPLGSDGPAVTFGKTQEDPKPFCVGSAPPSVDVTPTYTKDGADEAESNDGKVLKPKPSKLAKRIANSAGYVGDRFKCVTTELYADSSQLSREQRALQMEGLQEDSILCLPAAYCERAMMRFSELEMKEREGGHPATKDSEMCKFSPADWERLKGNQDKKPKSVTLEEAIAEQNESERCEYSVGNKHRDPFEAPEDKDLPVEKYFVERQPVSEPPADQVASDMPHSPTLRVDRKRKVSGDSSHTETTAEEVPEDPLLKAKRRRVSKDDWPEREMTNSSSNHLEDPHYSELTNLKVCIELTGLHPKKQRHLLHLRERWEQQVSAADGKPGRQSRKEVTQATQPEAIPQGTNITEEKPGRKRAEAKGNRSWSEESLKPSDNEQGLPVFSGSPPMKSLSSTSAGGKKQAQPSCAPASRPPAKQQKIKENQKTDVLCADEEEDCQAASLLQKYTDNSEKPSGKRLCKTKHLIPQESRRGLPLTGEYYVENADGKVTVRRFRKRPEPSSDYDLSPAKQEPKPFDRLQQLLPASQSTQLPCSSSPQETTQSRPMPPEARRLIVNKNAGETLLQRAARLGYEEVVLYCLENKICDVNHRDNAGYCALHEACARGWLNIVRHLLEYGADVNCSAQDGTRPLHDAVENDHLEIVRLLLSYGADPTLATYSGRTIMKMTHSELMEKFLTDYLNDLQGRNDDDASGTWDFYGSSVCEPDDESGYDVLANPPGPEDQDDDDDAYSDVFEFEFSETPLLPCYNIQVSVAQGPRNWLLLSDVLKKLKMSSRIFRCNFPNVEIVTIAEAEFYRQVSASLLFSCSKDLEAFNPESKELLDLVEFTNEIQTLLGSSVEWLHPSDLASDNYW
UniProt Q86WA6: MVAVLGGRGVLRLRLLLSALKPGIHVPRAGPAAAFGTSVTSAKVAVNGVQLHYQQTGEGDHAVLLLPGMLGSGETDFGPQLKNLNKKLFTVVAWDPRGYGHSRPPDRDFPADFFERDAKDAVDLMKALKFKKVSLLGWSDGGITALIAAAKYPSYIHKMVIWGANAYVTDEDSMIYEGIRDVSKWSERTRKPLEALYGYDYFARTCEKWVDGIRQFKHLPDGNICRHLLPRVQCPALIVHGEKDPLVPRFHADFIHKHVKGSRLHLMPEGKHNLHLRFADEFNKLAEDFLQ
UniProt O15155: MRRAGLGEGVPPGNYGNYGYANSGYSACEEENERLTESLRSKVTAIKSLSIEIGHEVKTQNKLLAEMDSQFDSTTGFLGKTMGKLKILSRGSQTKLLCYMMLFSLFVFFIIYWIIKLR
UniProt Q96GS4: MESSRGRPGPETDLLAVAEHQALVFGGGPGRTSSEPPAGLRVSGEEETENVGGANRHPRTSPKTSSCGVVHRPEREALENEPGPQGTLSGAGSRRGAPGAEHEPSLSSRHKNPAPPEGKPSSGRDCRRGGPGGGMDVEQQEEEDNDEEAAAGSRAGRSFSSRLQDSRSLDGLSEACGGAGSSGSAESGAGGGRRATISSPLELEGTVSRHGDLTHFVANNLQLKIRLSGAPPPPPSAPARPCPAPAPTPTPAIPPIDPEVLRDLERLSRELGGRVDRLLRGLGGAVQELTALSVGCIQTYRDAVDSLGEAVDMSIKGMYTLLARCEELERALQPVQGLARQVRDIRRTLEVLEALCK
UniProt O15392, whole entry, looked up: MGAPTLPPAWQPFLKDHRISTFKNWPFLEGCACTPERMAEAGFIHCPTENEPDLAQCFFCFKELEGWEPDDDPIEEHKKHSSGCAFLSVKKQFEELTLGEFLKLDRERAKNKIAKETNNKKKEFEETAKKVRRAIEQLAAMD

Some of the results follow.
What follows are targets tested with CC1=CC=C(C=C1)SC2=C3C=C(SC3=CN=C2)C(=O)N (assay: log2 fold change, soluble protein after heating vs DMSO (PISA); higher = thermal stabilisation; K562 lysate, 10 uM; active = over 0.2 and 3.5 SD of the protein, either way, in both replicates (recomputed)).
Outline: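 Quantification was by TMTpro 16plex LC-MS/MS with equalised channel sums, applied to the supernatant after 21,000xg for 90 min. Samples were crude K562 extract at 1 mg/mL protein in PBS pH 7.4 with 1 mM MgCl2, treated with 10 μM compound for 30 min, heated for 3 min across 48°C-58°C, pooled and brought to 0.5% NP-40 at 4°C. Values are log-two fold changes in thermal stability relative to solvent controls, from duplicates.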
BRD8 isoform 2 (UniProt Q9H0E9) was tested, and the log2 fold change was inactive: -0.033. In the case of BAIAP2 (UniProt Q9UQB8), the log2 fold change is reported as inactive: -0.009. For BAG6 isoform 3 (UniProt P46379), the log2 fold change was inactive: -0.005. For BPTF (UniProt Q12830), the log2 fold change was inactive: -0.015. BAG1 (UniProt Q99933) was tested, and the log2 fold change was inactive: -0.024. For BCL7B (UniProt Q9BQE9), the log2 fold change was inactive: -0.057. BCLAF1 (UniProt Q9NYF8) was tested, and the log2 fold change was inactive: -0.006. With BLOC1S5 (UniProt Q8TDH9) the log2 fold change was inactive: -0.002. BTN2A1 (UniProt Q7KYR7) was tested, and the log2 fold change was inactive: -0.014. BAG5 isoform 2 (UniProt Q9UL15) was tested, and the log2 fold change was inactive: -0.017. With BCL2L2 isoform 2 (UniProt Q92843) the log2 fold change was inactive: 0.01. In the case of BRCA1 isoform 7 (UniProt P38398), the log2 fold change is reported as inactive: -0.067. BRIX1 (UniProt Q8TDN6) was tested, and the log2 fold change was inactive: 0.033. In the case of BCL7C isoform 2 (UniProt Q8WUZ0), the log2 fold change is reported as inactive: 0.023. For BTBD6 (UniProt Q96KE9), the log2 fold change was inactive: -0.173. In the case of BCOR (UniProt Q6W2J9), the log2 fold change is reported as inactive: 0.035. With BORCS5 (UniProt Q969J3) the log2 fold change was inactive: -0.001. With BPHL (UniProt Q86WA6) the log2 fold change was inactive: -0.002. BET1 (UniProt O15155) was tested, and the log2 fold change was inactive: -0.001. For BNIP2 (UniProt J3KN59), the log2 fold change was inactive: 0.025. For BORCS6 (UniProt Q96GS4), the log2 fold change was inactive: 0.002. With BIRC5 (UniProt O15392) the log2 fold change was inactive: 0.054.
